Compound in the test: Nc1ncnc2c1ncn2[C@@H]1O[C@H](COP(=O)(O)OP(=O)(O)OP(=O)(O)O)[C@@H](O)[C@H]1O [adenosine triphosphate]
Put plainly: NP40-soluble protein abundance relative to vehicle (solubility fold change) (ratio); higher = more soluble protein in presence of ATP. The essentials: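 Each value is a fold change relative to the detergent-processed vehicle, calculated per replicate from vsn-normalised intensities. Jurkat crude lysate received eight concentrations (0.1 to 10 mM) for 10 min at room temperature and 3 min at 37 °C, then was solubilised in 0.8% NP40 with benzonase (60 min, 4 °C). The ultracentrifuged supernatant was TMT-labelled and run by LC-MS/MS in three independent experiments.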

Chains of the proteins cited; added tags and fusions are not shown. Lines headed by an entry give the natural chain unless they say otherwise; changes in a name come on top.
UniProt Q659C4: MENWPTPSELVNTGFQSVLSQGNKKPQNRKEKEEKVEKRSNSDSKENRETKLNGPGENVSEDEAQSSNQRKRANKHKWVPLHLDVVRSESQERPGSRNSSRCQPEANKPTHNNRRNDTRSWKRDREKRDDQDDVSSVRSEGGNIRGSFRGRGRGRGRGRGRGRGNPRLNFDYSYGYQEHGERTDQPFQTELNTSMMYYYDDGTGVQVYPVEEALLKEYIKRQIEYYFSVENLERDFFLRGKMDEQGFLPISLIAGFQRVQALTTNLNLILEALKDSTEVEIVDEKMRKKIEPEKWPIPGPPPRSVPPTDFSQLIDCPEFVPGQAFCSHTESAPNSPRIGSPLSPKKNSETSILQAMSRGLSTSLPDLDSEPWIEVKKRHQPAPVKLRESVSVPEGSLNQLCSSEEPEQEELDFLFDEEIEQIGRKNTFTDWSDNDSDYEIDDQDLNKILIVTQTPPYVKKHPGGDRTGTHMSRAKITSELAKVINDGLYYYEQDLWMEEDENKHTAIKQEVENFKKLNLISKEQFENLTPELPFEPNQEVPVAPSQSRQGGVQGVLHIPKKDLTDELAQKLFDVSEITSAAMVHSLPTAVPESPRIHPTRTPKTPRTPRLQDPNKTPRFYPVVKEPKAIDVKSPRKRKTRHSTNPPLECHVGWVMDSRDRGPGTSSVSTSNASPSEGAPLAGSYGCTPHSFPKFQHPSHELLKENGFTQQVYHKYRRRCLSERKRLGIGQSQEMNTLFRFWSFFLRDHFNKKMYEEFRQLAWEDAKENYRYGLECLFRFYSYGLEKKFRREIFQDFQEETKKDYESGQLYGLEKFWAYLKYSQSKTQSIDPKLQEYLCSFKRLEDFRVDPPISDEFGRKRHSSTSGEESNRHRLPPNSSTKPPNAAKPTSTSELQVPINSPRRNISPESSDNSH
UniProt Q6P4I2: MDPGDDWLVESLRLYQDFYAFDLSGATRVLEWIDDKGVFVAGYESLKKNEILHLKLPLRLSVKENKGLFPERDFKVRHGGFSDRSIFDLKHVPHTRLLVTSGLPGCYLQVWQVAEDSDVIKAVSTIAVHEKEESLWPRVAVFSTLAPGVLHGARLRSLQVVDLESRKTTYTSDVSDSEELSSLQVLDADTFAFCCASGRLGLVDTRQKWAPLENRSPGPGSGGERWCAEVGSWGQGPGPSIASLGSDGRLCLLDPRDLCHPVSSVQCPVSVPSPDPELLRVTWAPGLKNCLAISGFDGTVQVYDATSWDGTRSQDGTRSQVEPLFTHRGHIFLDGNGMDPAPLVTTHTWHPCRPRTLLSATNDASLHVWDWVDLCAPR
UniProt Q6P4E1: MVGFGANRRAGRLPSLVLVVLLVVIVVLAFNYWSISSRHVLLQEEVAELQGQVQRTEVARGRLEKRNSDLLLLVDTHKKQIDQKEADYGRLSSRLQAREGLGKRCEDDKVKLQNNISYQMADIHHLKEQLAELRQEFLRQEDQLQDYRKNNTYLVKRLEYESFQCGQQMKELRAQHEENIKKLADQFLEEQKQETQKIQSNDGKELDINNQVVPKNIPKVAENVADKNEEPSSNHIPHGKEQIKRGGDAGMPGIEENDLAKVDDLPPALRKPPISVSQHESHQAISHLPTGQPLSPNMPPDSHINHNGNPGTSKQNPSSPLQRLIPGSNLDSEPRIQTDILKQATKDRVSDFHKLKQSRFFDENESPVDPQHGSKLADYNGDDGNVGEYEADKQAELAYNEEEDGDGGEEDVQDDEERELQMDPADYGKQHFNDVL
UniProt Q5T3I0: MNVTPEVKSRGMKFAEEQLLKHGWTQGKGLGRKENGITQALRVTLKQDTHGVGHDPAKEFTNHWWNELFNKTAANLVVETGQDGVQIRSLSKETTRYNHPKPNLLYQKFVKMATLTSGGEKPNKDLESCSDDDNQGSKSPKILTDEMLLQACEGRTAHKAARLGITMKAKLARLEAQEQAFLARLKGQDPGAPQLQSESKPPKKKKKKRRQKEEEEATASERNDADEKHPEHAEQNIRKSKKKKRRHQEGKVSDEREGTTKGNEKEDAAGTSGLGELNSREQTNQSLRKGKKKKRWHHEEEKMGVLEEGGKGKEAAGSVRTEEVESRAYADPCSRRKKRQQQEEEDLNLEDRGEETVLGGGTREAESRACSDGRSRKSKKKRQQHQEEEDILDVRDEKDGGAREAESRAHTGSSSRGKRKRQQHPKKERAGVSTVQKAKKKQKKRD
UniProt Q6IAA8, whole entry: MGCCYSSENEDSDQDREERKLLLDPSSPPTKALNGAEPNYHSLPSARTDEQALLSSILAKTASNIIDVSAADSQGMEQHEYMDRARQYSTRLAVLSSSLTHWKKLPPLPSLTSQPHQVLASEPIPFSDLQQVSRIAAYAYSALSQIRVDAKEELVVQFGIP
UniProt Q5SVZ6: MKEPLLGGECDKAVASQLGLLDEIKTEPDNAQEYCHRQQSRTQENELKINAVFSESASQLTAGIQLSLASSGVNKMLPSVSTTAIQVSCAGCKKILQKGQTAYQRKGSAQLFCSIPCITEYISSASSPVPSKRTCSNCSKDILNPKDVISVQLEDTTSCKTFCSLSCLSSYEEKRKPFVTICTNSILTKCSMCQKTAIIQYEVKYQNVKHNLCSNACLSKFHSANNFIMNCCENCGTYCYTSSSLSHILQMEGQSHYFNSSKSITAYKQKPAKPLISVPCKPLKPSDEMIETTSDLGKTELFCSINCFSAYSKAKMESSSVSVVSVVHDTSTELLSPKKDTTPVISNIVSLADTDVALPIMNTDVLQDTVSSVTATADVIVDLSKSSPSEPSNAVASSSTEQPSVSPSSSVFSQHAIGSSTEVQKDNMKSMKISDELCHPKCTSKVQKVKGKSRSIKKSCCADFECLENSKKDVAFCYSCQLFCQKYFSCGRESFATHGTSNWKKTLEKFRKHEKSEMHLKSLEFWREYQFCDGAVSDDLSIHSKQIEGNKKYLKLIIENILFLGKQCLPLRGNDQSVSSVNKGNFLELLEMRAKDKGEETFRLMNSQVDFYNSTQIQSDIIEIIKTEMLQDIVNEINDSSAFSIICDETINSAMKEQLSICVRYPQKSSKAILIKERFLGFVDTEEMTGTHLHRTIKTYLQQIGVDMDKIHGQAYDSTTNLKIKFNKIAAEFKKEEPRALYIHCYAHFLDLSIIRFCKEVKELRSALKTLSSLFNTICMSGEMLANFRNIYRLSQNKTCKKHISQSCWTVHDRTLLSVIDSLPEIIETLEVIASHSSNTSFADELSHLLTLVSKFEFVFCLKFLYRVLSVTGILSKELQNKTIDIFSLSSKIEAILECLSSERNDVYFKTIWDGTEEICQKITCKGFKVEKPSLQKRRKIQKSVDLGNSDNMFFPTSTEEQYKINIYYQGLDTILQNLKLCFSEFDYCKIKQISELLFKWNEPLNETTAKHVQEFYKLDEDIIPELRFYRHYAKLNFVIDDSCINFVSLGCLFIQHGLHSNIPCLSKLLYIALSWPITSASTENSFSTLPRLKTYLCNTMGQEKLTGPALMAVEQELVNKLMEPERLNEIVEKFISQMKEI
UniProt Q6FIF0: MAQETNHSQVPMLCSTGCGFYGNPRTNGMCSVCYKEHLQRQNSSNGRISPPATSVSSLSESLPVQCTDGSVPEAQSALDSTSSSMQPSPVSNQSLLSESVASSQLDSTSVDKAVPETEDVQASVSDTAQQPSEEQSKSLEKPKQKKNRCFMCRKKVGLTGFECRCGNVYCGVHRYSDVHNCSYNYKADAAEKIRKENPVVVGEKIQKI
UniProt Q5T5C0: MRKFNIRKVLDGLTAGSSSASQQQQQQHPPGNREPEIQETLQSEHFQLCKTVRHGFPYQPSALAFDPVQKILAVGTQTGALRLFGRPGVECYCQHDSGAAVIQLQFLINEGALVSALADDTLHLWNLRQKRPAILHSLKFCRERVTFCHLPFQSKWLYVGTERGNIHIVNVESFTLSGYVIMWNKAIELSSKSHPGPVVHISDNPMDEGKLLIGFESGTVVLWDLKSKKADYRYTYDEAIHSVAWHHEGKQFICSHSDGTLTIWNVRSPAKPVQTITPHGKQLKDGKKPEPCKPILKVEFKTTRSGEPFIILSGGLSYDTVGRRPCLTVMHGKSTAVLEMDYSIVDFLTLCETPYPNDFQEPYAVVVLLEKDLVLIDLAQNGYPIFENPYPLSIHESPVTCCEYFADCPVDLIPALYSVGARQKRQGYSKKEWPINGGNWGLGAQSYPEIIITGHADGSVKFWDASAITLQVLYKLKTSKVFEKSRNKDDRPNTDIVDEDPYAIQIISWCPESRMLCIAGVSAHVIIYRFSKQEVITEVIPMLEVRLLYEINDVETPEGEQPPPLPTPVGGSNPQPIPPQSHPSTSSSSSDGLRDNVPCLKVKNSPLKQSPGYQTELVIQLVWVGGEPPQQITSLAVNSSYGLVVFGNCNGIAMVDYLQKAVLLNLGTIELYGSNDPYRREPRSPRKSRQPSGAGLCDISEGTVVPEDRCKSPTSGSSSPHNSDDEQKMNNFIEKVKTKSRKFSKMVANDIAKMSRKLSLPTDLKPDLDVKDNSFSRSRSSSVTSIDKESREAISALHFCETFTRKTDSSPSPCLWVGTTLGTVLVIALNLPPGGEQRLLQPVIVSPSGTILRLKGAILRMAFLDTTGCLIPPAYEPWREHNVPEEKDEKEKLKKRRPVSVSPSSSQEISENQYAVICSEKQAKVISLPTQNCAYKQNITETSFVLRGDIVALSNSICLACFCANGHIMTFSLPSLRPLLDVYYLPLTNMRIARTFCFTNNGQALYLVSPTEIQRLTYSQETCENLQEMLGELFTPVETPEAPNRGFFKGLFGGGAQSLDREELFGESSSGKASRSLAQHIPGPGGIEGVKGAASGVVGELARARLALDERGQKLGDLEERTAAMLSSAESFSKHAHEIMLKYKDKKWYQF
UniProt Q66K74: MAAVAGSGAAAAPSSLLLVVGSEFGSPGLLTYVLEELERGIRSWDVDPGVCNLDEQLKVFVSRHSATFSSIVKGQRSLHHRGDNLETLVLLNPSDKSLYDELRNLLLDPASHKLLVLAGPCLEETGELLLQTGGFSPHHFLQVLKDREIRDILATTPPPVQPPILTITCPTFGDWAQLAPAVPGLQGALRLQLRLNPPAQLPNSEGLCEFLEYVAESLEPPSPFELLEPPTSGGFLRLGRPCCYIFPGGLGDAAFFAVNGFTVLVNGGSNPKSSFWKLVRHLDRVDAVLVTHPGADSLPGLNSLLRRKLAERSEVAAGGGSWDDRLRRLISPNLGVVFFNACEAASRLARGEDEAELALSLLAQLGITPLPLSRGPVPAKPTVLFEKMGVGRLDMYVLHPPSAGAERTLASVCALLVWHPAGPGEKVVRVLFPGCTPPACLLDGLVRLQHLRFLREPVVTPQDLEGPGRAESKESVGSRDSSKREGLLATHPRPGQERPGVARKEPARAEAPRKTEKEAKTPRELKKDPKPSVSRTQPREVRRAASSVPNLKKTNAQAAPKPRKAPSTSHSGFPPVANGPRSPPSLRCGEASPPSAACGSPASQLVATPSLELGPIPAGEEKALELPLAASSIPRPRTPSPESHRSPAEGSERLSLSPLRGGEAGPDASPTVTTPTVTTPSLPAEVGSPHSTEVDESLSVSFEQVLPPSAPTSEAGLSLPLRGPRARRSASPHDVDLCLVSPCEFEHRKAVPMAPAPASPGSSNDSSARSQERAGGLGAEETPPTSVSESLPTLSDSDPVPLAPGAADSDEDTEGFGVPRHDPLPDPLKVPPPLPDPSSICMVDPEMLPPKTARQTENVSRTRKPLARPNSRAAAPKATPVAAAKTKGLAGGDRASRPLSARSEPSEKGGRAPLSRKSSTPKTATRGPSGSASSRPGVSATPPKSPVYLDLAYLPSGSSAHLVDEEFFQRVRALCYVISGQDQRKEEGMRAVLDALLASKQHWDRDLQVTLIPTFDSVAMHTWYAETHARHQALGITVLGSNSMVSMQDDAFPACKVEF
UniProt Q6P4A7: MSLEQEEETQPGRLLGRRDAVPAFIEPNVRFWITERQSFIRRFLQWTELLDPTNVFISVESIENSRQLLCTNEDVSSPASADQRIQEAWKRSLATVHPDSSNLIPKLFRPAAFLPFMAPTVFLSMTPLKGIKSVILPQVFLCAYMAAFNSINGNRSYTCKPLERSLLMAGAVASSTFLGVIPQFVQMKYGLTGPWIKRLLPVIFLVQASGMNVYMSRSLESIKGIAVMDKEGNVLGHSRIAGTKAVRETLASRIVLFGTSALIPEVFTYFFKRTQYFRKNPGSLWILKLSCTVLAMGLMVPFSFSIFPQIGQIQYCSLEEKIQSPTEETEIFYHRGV

± gives the standard deviation of the averaged measurements. The list shows a part of the results, in another mix than the full data.

For LARP2 (UniProt Q659C4), the NP40-soluble protein abundance by setting is: (concentration: 1mM) 1.08 ± 0.17; (concentration: 2mM) 1.04 ± 0.22; (concentration: 4mM) 1.1 ± 0.23; (concentration: 6mM) 1.07 ± 0.17; (concentration: 8mM) 1.05 ± 0.28; (concentration: 10mM) 1.09 ± 0.21.

For the target WDR73 (UniProt Q6P4I2), the NP40-soluble protein abundance is 1.03 ± 0.1 (concentration: 1mM); 1 ± 0.063 (concentration: 2mM); 1.02 ± 0.047 (concentration: 4mM); 0.985 ± 0.1 (concentration: 6mM); 1.02 ± 0.081 (concentration: 8mM); 0.987 ± 0.054 (concentration: 10mM).

For the target UniProt Q6P4E1 and related entries, the NP40-soluble protein abundance (concentration: 1mM) is 0.944 ± 0.12; the NP40-soluble protein abundance (concentration: 2mM) came to 0.888 ± 0.056; the NP40-soluble protein abundance (concentration: 4mM) was determined as 0.911 ± 0.042; the NP40-soluble protein abundance (concentration: 6mM) was found to be 0.9 ± 0.094; the NP40-soluble protein abundance (concentration: 8mM) came to 0.87 ± 0.018; the NP40-soluble protein abundance (concentration: 10mM) turned out to be 0.762 ± 0.11.

UniProt Q5T3I0 and related entries: the NP40-soluble protein abundance (concentration: 1mM) was 1.17 ± 0.09; the NP40-soluble protein abundance (concentration: 2mM) is 1.24 ± 0.087; the NP40-soluble protein abundance (concentration: 4mM) was 1.28 ± 0.085; the NP40-soluble protein abundance (concentration: 6mM) came to 1.35 ± 0.048; the NP40-soluble protein abundance (concentration: 8mM) is 1.39 ± 0.084; the NP40-soluble protein abundance (concentration: 10mM) turned out to be 1.48 ± 0.11.

With NIPBL (UniProt Q6KC79), the NP40-soluble protein abundance (concentration: 1mM) was found to be 1.12 ± 0.023; the NP40-soluble protein abundance (concentration: 2mM) was 1.121 ± 0.0094; the NP40-soluble protein abundance (concentration: 4mM) is 1.158 ± 0.011; the NP40-soluble protein abundance (concentration: 6mM) was 1.19 ± 0.007; the NP40-soluble protein abundance (concentration: 8mM) amounted to 1.184 ± 0.0095; the NP40-soluble protein abundance (concentration: 10mM) amounted to 1.188 ± 0.0065.

UniProt Q6IAA8: the NP40-soluble protein abundance (concentration: 1mM) worked out at 0.934 ± 0.074; the NP40-soluble protein abundance (concentration: 2mM) was 0.989 ± 0.057; the NP40-soluble protein abundance (concentration: 4mM) was 0.991 ± 0.037; the NP40-soluble protein abundance (concentration: 6mM) was determined as 1.02 ± 0.11; the NP40-soluble protein abundance (concentration: 8mM) was determined as 0.942 ± 0.045; the NP40-soluble protein abundance (concentration: 10mM) worked out at 0.913 ± 0.077.

On to ZMYM1 (UniProt Q5SVZ6), for which the NP40-soluble protein abundance (concentration: 1mM) turned out to be 1.03 ± 0.055; the NP40-soluble protein abundance (concentration: 2mM) amounted to 1.02 ± 0.067; the NP40-soluble protein abundance (concentration: 4mM) was 1.06 ± 0.053; the NP40-soluble protein abundance (concentration: 6mM) is 1.06 ± 0.04; the NP40-soluble protein abundance (concentration: 8mM) was 1.09 ± 0.039; the NP40-soluble protein abundance (concentration: 10mM) amounted to 1.1 ± 0.044.

Turning to RPL7L1 (UniProt Q6DKI1), the NP40-soluble protein abundance reads like this: (concentration: 1mM) 1.03 ± 0.095; (concentration: 2mM) 1.05 ± 0.097; (concentration: 4mM) 0.997 ± 0.076; (concentration: 6mM) 1.02 ± 0.091; (concentration: 8mM) 0.894 ± 0.049; (concentration: 10mM) 1.03 ± 0.12.

Turning to UniProt Q6FIF0 and related entries, the NP40-soluble protein abundance runs as follows: (concentration: 1mM) 0.969 ± 0.1; (concentration: 2mM) 0.955 ± 0.051; (concentration: 4mM) 0.967 ± 0.028; (concentration: 6mM) 0.983 ± 0.0099; (concentration: 8mM) 0.918 ± 0.022; (concentration: 10mM) 0.913 ± 0.045.

As to UniProt Q5T5C0 and related entries, the NP40-soluble protein abundance by setting is: (concentration: 1mM) 1.03 ± 0.077; (concentration: 2mM) 1.01 ± 0.03; (concentration: 4mM) 1 ± 0.095; (concentration: 6mM) 0.996 ± 0.031; (concentration: 8mM) 0.993 ± 0.14; (concentration: 10mM) 0.988 ± 0.038.

Take UniProt Q6MZP7 and related entries: the NP40-soluble protein abundance turned out to be 1.04 ± 0.061 (concentration: 1mM); 1.02 ± 0.058 (concentration: 2mM); 1.03 ± 0.07 (concentration: 4mM); 1.08 ± 0.089 (concentration: 6mM); 1.05 ± 0.086 (concentration: 8mM); 1.09 ± 0.045 (concentration: 10mM).

For the target UniProt Q66K74 and related entries, the NP40-soluble protein abundance is, setting by setting: (concentration: 1mM) 0.991 ± 0.028; (concentration: 2mM) 1.01 ± 0.016; (concentration: 4mM) 1 ± 0.028; (concentration: 6mM) 1.012 ± 0.0085; (concentration: 8mM) 1.02 ± 0.07; (concentration: 10mM) 1.01 ± 0.054.

Take SFXN4 (UniProt Q6P4A7): the NP40-soluble protein abundance (concentration: 1mM) is 1.08 ± 0.083; the NP40-soluble protein abundance (concentration: 2mM) came to 0.976 ± 0.045; the NP40-soluble protein abundance (concentration: 4mM) is 1.06 ± 0.059; the NP40-soluble protein abundance (concentration: 6mM) was found to be 1.04 ± 0.12; the NP40-soluble protein abundance (concentration: 8mM) was found to be 1.03 ± 0.02; the NP40-soluble protein abundance (concentration: 10mM) worked out at 0.988 ± 0.13.

Regarding NUP188 (UniProt Q5SRE5), the NP40-soluble protein abundance by setting is: (concentration: 1mM) 1.06 ± 0.087; (concentration: 2mM) 1.09 ± 0.084; (concentration: 4mM) 1.15 ± 0.062; (concentration: 6mM) 1.05 ± 0.087; (concentration: 8mM) 1.24 ± 0.062; (concentration: 10mM) 1.27 ± 0.045.

Turning to UniProt Q68E01-2|Q68E01, the NP40-soluble protein abundance was determined as 1.12 ± 0.22 (concentration: 1mM); 1.06 ± 0.14 (concentration: 2mM); 1.1 ± 0.14 (concentration: 4mM); 1.09 ± 0.13 (concentration: 6mM); 1.11 ± 0.14 (concentration: 8mM); 1.12 ± 0.15 (concentration: 10mM).

The record behind these values is the supplement of paper PMC6411743.
